Laboratory results from publication PMC3338822.
Results are given in words; binding and its absence hold for the method and conditions named. A result given as binding can be weak or reduced; the word gives no strength.

The chains behind the UniProt entries cited, without tags or fusion partners. Where a name states a change or a piece, a line headed by the entry shows the natural chain unless it says otherwise.
UniProt A7EKS0: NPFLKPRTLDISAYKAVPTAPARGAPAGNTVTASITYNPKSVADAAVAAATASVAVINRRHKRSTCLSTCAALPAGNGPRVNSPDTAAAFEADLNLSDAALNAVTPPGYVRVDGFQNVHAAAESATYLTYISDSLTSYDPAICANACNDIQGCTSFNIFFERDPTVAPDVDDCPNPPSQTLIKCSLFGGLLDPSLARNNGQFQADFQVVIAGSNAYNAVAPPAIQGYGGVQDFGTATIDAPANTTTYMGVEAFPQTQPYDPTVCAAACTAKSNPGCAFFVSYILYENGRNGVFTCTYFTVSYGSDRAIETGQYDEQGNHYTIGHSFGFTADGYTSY
UniProt A7EJM6: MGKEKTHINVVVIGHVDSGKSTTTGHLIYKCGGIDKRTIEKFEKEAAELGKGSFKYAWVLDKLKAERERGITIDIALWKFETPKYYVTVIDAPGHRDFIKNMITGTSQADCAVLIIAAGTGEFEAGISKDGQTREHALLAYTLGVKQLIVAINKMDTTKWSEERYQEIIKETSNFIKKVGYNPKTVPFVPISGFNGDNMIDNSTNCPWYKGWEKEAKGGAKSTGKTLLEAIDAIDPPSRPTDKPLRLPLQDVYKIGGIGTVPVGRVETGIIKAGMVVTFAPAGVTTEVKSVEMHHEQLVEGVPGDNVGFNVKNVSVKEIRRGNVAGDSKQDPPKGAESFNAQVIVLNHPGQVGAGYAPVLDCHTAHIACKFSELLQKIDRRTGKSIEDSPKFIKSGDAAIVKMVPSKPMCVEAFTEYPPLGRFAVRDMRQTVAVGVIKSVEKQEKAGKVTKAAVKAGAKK

Molecular target: Ss-Sl2 amino acid 17-352 (without signal peptide), bait in pGBKT7 (Sclerotinia sclerotiorum) (UniProt A7EKS0)
Assay: two-hybrid; GAL4-based Matchmaker Gold system; Ss-Sl2 aa 17-352 in pGBKT7 as bait, full length cDNAs in pGADT7 as preys, co-transformed into Y2HGold; growth on SD/-Trp-Leu-His-Ade and the same with X-α-gal

“elongation factor 1-alpha, prey in pGADT7 (from UniProt A7EJM6)” was tested, and the binding was “binds weakly”.
